In patent US20260364061A1, “COMPOUNDS, COMPOSITIONS, AND METHODS FOR THE TREATMENT OF CANCER” (Ohio State Innovation Foundation, priority 2023, published 2026):
Like-named read-outs stand apart in the source and are kept apart here.

Assays:
[1] = system: dedifferentiated liposarcoma (DDLPS) cell line Lipo863; experiment: Cell cytotoxicity (MTS) assay; conditions: Homo sapiens
IWS1 = target: T1, IWS1 (Homo sapiens, UniProt Q96ST2); experiment: Nuclear/cytosolic fraction analysis of IWS1 distribution; assay type: cell-based; conditions: 5 uM; 48-hour treatment; DMSO negative control ratio 0.75
T1 construct: document uses human liposarcoma lines; nuclear/cytosolic fractionation
From the text: The binding of the small molecule to IWS1 may cause the redistribution of the latter in the cell (cytoplasmic vs nuclear locations) due to conformational changes of the protein or disruption of its functions. To characterize the effect of a drug candidate on the distribution of IWS1 in the cell, we performed fraction analysis by separating cytoplasmic and nuclear proteins.

[2] = system: Empty Vector (EV) dedifferentiated liposarcoma cells (cell lines Lipo863 and Lipo815); experiment: Migration assay, Empty Vector (EV) control cells; assay type: cell-based, human; conditions: 0.4-4 uM solutions; FIG. 17
Protocol: (§1) FIG. 16A-16B. Evaluation of the effect of IWS1 inhibitors identified from in silico screening on the migration of cancer cells. […] The migration assay was performed using two cell groups: Empty Vector (EV, Negative control) and shIWS1 (IWS1 knockdown).
FIG. 17. Evaluation of the dose-dependent effect of IWS1 inhibitors identified from in silico screening on the migration of cancer cells. Cell migration in vitro represents to some extent the ability of cells to metastasize in vivo.
(§2) To evaluate these compounds, we used dedifferentiated cell lines Lipo863 and Lipo815 as an in-vitro model of dedifferentiated liposarcoma (DDLPS). […] FIG. 15A-15C. Using these candidates as potential pharmacological inhibitors of IWS1, we expected to reproduce/mimic phenotypical changes specific for lentiviral IWS1 knockdown. […] We performed a migration assay to assess the ability of cells to migrate after 24 hours of treatment compared to intact cells (EV) as well as IWS1 knockdown cells (shIWS1). Using drug concentrations that would not affect the viability of the cells, we sought to evaluate predominantly the migratory ability of cells. […] FIG. 17.

[3] = system: shIWS1 (IWS1 knockdown) dedifferentiated liposarcoma cells (cell lines Lipo863 and Lipo815); experiment: Migration assay, IWS1 knockdown (shIWS1) cells; assay type: cell-based, human; conditions: 24 hours of treatment, vs non-treatment control
Protocol: as §1, §2

[4] = system: invasive DDLPS cell line Lipo246; experiment: Invasion of DDLPS cells; assay type: cell-based; conditions: 48 h, read-out: decrease in invasion ability
From the text: FIG. 18. Evaluation of the effect of IWS1 inhibitors identified from in silico screening on the […] of cancer cells. Invasiveness is important parameter used to characterize the aggressive behavior of cancer cells.
Invasiveness is important parameter used to characterize the aggressive behavior of cancer cells.

IWS1/Spt6 complex = experiment: Co-immunoprecipitation of the IWS1/Spt6 complex from treated cells; assay type: cell-based, human; conditions: Co-IP after 48 hours of treatment; vs DMSO negative control
From the text: The Co-IP method allowed us to analyze IWS1/Spt6 protein complex directly and assess the efficiency of the drug candidates to disrupt the complex.

[5] = read-out: IC50 (cell cytotoxicity assay)
[6] = read-out: IC50 (the concentration at which the drug kills 50% of cancer cells)

SMILES: CN1CCC(=C2c3ccccc3C=Cc3ccccc32)CC1 [Cyproheptadine]
- IC50 [1, 5]: 33 µM
- IC50 [1, 6]: 33 µM

SMILES: Clc1ccc2c(c1)CCc1cccnc1C2=C1CCNCC1 [Desloratadine]
- increase of ratio between nuclear and cytosolic fractions of IWS1 (IWS1): 3.3
- decrease in migration ability (dose-dependent) [2]: 34-53%
- reduction in migration, shIWS1 cells [3]: no significant reduction
- inhibition at 4 µM [4]: 25%
- IC50 [1, 5]: 14 µM
- IC50 [1, 6]: 14 µM
- decrease in amount of IWS1/Spt6 complex pulled down (IWS1/Spt6 complex): more than 50%
